Measured values from article PMC2494559.
Results are given in words; binding and its absence hold for the method and conditions named. Some entries that bind do so weakly or less than the wild type.

Amino acid sequences for entries named in this document (tags omitted). Residues count along the entry.
UniProt P9WNK7, residues 6-25: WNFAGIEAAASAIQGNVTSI

Biological target: synthetic peptide E20 corresponding to residues 6–25 of ESAT-6 (Mycobacterium tuberculosis) (UniProt P9WNK7)
Test: fibril formation followed by electron microscopy + thioflavin T binding; […] (10 mM Tris, 1 mM EDTA, 25 mM DTT), […]; both purified

How did the binding turn out when “synthetic peptide E20 corresponding to residues 6–25 of ESAT-6 (from UniProt P9WNK7 6-25)” was run?
The binding was “binds”.
